In all, about 350,000 compounds went through this assay and about 6,000 (1.7%) were called active. The inconclusive results got no clear call from the source; some entries with a clear call stand among them for comparison. Rule as the data show it: active = CPE inhibition above about 20% (passing the limit was not always enough); inconclusive = no clear call, values can overlap the other calls; tested in BHK-21 cells.
Experiment: protection of cells from dengue 2 killing – plate reader, single concentration, primary screen (AID 651640);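 also: 0% = median of neutral control wells and 100% = median of positive control wells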
Conditions: DENV2-infected cells, cytopathic effect rescue, at 9.99 µM, active compounds read high

| SMILES | CPE inhibition |
| --- | --- |
| CC(C)(Oc1ccc(Cl)cc1)C(=O)N(Cc1ccccc1)c1ccccn1 | inconclusive: 26.6% |
| C[C@H](CO)N1C[C@H](C)[C@H](CN(C)Cc2ccc(Oc3ccccc3)cc2)Oc2ccc(NC(=O)CCCN(C)C)cc2C1=O | inconclusive: 46.2% |
| C[C@@H]1CCCCO[C@H](CN(C)S(=O)(=O)c2ccc(Cl)cc2)[C@@H](C)CN([C@@H](C)CO)C(=O)c2cc(NC(=O)Nc3ccc(C(F)(F)F)cc3)ccc2O1 | active: 32% |
| Cc1ccc(-n2ncc3c2CCCC3NC(=O)c2cnccn2)cc1C (stereo not given) | inconclusive: 38.3% |
| CC1CC(C)CN(C(=O)COC(=O)c2ccc3c(c2)OCO3)C1 (stereo not given) | inconclusive: 46.8% |
| COC(=O)c1ccccc1NC(=O)C/C(C)=N/NC(=O)Cc1ccc(Cl)cc1 | inconclusive: 25.6% |
| COc1ccc(-c2ccc3c(c2)[C@H]2[C@H](CCN2C(=O)Cc2cccnc2)[C@@H](CO)N3C)cc1 | inconclusive: 36.2% |
| Cc1cc(Nc2cccc(F)c2)nc(N2CCOCC2)n1 | inconclusive: 33.3% |
| O=S(=O)(NC[C@@H]1[C@@H](c2ccccc2)[C@@H](CO)N1CC1CC1)c1ccccc1 | inactive: 13% |
| COc1cc(OC)c2c(-c3ccccc3)cc(=O)oc2c1C(CCN1CCOCC1)c1ccc(N(C)C)cc1 (stereo not given) | inactive: -10.9% |
| O=C(C[C@@H]1C[C@H]2c3cc(NC(=O)Cc4ccncc4)ccc3O[C@H]2[C@@H](CO)O1)NCc1cccnc1 | inconclusive: 59.9% |
| COc1ccc(C(=O)N2CCC2(C)C(=O)O)cc1F (stereo not given) | active: 78.9% |
| N#C/C(=C/c1ccc(OCc2ccc(C(=O)O)cc2)c(Br)c1)c1cccc(F)c1 | inactive: 0.542% |
| O=C(OCC(=O)N(CCc1ccccc1)Cc1ccccc1)c1cccc(S(=O)(=O)N2CCOCC2)c1 | inconclusive: 31.9% |
| Cn1nc(C(=O)NNC(=O)c2cccc(Cl)c2)c2ccccc2c1=O | active: 66.9% |
| COc1ccc(C(=O)N2C[C@@H]3[C@H](c4ccccc42)[C@H](CO)N3C(=O)NC(C)C)cc1 | active: 26.8% |
| C/C=C/c1ccc2c(c1)O[C@H](CN(C)C(=O)c1cccc(F)c1)[C@H](C)CN([C@@H](C)CO)S2(=O)=O | inconclusive: 21.8% |
| CC(C)(C)OC(=O)C[C@@H]1C/C=C\C[C@H](CC(=O)N[C@H](CO)Cc2ccccc2)C(=O)N2CCC[C@H]2COC1=O | inconclusive: 52.2% |
| COc1cccc(-c2ccc([C@H]3[C@@H](CO)N4CCCCN(CC5CCOCC5)C[C@@H]34)cc2)c1 | inactive: 1.61% |
| O=C(COc1ccccc1O)NC1CCCC1 | inconclusive: 26.3% |

Reformatted as tab-separated lines: part of the list above
SMILES	CPE inhibition
C[C@H](CO)N1C[C@H](C)[C@H](CN(C)Cc2ccc(Oc3ccccc3)cc2)Oc2ccc(NC(=O)CCCN(C)C)cc2C1=O	inconclusive: 46.2%
Cc1ccc(-n2ncc3c2CCCC3NC(=O)c2cnccn2)cc1C (stereo not given)	inconclusive: 38.3%
COC(=O)c1ccccc1NC(=O)C/C(C)=N/NC(=O)Cc1ccc(Cl)cc1	inconclusive: 25.6%
O=C(C[C@@H]1C[C@H]2c3cc(NC(=O)Cc4ccncc4)ccc3O[C@H]2[C@@H](CO)O1)NCc1cccnc1	inconclusive: 59.9%
COc1cccc(-c2ccc([C@H]3[C@@H](CO)N4CCCCN(CC5CCOCC5)C[C@@H]34)cc2)c1	inactive: 1.61%

Reference: PubChem BioAssay AID651640 (Broad Institute, 2012)
